For one test, the target named is NLRP3 (UniProt Q96P20). The test can be described thus: co-IP of GFP-TRIM20 variants with NLRP3, HEK293 cells.
Another test has as its target ATG16L1 (UniProt Q676U5). The test can be described thus: co-IP of TRIM20 deletion variants with Flag-ATG16L1.
The target of the next test is Beclin 1 (UniProt Q14457). The test can be described thus: co-IP of GFP-TRIM20 deletion variants with Flag-Beclin 1.
The target in test [1] is AMBRA1 (UniProt Q9C0C7). In words: co-IP of endogenous proteins, THP-1.
Test [2] deals with Beclin 1 segment encompassing CCD and ECD (UniProt Q14457). In words: co-IP of Flag-Beclin 1 variants with GFP-IRGM.
The target in test [3] is AMBRA1 (UniProt Q9C0C7). In words: co-immunoprecipitation, HEK293T lysates.
The target in the next test is NOD2 (full length) (UniProt Q9HC29). The test can be described thus: Flag pull-down, affinity purified Flag-NOD2 variants and purified GST-IRGM.

The chains behind the UniProt entries cited, without tags or fusion partners. Where a name states a change or a piece, a line headed by the entry shows the natural chain unless it says otherwise. Residues count along the entry.
UniProt Q96P20: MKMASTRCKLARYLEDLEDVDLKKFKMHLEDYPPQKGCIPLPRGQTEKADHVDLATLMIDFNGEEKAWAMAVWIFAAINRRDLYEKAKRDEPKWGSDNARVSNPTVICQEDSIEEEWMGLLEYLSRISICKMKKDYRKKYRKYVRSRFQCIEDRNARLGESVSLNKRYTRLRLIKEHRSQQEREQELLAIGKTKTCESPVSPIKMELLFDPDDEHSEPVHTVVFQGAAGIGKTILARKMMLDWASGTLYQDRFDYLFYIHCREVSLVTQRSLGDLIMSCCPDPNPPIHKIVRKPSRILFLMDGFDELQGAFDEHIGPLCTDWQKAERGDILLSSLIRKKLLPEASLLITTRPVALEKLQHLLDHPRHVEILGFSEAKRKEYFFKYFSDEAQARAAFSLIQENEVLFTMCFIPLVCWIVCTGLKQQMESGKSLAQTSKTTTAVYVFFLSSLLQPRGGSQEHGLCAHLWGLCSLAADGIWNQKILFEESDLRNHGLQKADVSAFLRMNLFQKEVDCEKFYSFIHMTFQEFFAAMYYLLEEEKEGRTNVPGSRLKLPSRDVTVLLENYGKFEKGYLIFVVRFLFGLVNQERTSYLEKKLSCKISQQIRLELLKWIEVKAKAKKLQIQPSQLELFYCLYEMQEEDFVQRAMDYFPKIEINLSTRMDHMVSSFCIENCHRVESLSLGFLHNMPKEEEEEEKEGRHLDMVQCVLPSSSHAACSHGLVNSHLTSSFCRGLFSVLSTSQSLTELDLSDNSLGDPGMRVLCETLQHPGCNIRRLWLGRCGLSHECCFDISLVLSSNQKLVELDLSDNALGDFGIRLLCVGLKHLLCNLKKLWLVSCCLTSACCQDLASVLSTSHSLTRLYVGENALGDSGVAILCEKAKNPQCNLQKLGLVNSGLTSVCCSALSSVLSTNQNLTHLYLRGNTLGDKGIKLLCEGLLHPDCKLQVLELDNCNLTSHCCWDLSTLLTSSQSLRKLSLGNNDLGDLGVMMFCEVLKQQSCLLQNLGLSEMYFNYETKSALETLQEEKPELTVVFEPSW
UniProt Q676U5: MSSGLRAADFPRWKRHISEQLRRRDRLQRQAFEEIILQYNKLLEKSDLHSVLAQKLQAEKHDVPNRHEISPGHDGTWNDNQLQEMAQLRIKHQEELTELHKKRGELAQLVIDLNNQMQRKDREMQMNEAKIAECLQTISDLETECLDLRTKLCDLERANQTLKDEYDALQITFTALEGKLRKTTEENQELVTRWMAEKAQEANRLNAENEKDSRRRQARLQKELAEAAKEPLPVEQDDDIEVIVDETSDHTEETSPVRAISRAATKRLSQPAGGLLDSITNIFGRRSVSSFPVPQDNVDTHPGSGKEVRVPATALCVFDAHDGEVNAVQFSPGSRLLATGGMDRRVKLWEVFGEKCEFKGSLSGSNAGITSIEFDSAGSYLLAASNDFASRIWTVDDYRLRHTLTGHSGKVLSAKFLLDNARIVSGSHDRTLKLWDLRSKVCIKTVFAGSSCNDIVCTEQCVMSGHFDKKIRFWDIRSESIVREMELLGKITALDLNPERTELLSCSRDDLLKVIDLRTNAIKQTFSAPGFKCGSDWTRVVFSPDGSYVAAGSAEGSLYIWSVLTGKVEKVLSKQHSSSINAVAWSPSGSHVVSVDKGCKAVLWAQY
UniProt Q14457: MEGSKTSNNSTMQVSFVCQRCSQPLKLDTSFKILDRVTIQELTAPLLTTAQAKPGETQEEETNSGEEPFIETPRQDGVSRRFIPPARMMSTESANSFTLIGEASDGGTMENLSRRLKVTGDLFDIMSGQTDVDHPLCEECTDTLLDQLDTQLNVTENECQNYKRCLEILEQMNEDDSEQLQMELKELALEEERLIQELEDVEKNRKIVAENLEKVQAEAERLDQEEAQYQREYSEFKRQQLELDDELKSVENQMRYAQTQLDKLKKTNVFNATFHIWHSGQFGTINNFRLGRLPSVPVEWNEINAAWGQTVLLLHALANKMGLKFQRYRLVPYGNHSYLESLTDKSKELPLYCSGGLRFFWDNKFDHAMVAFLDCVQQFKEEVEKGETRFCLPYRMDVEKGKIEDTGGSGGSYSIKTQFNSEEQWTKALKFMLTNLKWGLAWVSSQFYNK
Beclin 1 segment encompassing CCD and ECD: residues 144-450 of Q14457
UniProt Q9C0C7: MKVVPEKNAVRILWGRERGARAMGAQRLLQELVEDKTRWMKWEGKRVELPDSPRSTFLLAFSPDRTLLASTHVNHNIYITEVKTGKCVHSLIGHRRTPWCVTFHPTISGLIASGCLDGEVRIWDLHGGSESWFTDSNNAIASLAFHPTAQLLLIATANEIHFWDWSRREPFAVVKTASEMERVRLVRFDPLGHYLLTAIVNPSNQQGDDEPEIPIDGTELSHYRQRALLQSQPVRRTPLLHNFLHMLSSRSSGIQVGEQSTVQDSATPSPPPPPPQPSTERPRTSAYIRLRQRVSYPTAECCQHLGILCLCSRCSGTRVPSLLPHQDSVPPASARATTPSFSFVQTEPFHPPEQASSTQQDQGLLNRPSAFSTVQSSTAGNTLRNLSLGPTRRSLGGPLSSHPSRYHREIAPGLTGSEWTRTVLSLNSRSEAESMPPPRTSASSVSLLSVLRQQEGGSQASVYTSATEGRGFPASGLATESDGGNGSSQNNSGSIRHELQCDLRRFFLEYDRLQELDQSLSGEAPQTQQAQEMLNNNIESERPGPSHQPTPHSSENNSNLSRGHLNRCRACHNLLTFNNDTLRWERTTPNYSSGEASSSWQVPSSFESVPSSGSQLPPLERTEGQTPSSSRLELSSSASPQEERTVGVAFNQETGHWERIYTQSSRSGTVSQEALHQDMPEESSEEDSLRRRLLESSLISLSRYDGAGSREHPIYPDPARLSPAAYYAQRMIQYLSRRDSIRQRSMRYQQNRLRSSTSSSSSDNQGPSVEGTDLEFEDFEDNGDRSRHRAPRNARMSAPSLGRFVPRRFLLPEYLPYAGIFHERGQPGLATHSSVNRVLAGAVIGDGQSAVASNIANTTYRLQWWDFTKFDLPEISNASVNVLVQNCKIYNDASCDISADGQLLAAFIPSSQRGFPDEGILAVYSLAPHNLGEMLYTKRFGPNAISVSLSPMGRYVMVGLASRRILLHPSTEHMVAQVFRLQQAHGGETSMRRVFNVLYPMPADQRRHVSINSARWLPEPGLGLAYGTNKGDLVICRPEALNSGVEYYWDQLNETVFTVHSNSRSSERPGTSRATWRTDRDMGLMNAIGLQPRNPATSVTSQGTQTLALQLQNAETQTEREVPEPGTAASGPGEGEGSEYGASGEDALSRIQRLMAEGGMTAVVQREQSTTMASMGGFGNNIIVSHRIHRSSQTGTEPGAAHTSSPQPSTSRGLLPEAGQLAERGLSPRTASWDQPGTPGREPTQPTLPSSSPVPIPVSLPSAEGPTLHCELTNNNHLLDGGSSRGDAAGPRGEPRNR
UniProt Q9HC29: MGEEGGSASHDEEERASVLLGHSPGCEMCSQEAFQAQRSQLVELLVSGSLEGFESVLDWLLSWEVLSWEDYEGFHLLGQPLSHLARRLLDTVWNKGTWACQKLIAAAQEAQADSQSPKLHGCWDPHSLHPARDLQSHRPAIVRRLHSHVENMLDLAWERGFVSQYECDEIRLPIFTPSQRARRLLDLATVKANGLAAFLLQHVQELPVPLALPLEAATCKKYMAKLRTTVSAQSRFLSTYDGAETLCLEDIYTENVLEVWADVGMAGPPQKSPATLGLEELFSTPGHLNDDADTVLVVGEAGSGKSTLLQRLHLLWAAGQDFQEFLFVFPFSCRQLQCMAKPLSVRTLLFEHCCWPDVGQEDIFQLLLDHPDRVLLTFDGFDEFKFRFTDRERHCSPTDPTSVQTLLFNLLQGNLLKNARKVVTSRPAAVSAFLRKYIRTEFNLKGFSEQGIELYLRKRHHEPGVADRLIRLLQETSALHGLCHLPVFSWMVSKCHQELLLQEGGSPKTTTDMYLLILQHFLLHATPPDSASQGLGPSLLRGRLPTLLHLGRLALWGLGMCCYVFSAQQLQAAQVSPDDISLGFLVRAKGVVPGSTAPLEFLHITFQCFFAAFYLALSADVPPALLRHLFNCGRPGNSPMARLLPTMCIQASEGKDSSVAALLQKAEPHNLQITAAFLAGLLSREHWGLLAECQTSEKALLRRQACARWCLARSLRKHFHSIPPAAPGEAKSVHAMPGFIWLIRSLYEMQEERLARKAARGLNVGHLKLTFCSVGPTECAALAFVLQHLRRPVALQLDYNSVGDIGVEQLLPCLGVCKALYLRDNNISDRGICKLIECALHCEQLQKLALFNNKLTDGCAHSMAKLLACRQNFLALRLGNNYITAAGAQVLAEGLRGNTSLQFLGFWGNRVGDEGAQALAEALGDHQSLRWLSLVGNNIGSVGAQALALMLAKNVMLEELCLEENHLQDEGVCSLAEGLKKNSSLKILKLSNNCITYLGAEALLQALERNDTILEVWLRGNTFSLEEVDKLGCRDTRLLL

No constants are given. Whether binding was seen depends on the method and setting. In cells and extracts the contact can be indirect. Some results given as binding are weak or reduced against the parent protein; the word gives no strength. For some of these results: Where a sequence is shown, tags or fusion partners need not be part of it.

B1: TRIM20 construct containing only the PRY/SPRY domain (protein, not shown: large carriers)
chain: SEMEMFNVPELIGAQAHAVNVILDAETAYPNLIFSDDLKSVRLGNKWERLPDGPQRFDSCIIVLGSPSFLSGRRYWEVEVGDKTAWILGACKTSISRKGNMTLSPENGYWVVIMMKENEYQASSVPPTRLLIKEPPKRVGIFVDYRVGSISFYNVTARSHIYTFASCSFSGPLQPIFSPGTRDGGKNTAPLTICPVGGQGPD
For B1, the binding result with NLRP3, with ATG16L1 and with Beclin 1 was “binds” in each case.

B2: IRGM (human IRGM, isoform d) (protein, UniProt A1A4Y4-4 1-202, looked up)
chain: MEAMNVEKASADGNLPEVISNIKETLKIVSRTPVNITMAGDSGNGMSTFISALRNTGHEGKASPPTELVKATQRCASYFSSHFSNVVLWDLPGTGSATTTLENYLMEMQFNRYDFIMVASAQFSMNHVMLAKTAEDMGKKFYIVWTKLDMDLSTGALPEVQLLQIRENVLENLQKERLACHEKYLKSTPENSTRPRNINLCS
For the molecule B2, the binding entry (with AMBRA1 [1]; in test [2]; with AMBRA1 [3]) was “binds” each time.

B3: purified recombinant GST-IRGM (GST-IRGMd), prepared from insect cells (protein, human, UniProt A1A4Y4-4 1-202, looked up, not shown: a dimerising Fc or GST)
chain: MEAMNVEKASADGNLPEVISNIKETLKIVSRTPVNITMAGDSGNGMSTFISALRNTGHEGKASPPTELVKATQRCASYFSSHFSNVVLWDLPGTGSATTTLENYLMEMQFNRYDFIMVASAQFSMNHVMLAKTAEDMGKKFYIVWTKLDMDLSTGALPEVQLLQIRENVLENLQKERLACHEKYLKSTPENSTRPRNINLCS
Regarding B3, the binding entry with NOD2 (full length) is “binds”.

These data come from patent US20180236024A1.
